{"sequences": {"note": "Sequences of proteins named here, by UniProt entry; tags and fusion partners are left off. A change or cut given only in a name is not applied to a line headed by its entry.", "UniProt Q8N5M1": "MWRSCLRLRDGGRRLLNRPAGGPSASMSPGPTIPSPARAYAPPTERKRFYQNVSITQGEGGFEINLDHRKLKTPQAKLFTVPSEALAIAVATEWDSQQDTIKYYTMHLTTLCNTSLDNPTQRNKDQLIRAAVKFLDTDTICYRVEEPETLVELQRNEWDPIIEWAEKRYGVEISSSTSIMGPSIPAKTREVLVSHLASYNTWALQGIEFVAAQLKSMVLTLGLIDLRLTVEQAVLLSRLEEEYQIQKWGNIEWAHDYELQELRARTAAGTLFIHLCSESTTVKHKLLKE", "UniProt Q9NVR5": "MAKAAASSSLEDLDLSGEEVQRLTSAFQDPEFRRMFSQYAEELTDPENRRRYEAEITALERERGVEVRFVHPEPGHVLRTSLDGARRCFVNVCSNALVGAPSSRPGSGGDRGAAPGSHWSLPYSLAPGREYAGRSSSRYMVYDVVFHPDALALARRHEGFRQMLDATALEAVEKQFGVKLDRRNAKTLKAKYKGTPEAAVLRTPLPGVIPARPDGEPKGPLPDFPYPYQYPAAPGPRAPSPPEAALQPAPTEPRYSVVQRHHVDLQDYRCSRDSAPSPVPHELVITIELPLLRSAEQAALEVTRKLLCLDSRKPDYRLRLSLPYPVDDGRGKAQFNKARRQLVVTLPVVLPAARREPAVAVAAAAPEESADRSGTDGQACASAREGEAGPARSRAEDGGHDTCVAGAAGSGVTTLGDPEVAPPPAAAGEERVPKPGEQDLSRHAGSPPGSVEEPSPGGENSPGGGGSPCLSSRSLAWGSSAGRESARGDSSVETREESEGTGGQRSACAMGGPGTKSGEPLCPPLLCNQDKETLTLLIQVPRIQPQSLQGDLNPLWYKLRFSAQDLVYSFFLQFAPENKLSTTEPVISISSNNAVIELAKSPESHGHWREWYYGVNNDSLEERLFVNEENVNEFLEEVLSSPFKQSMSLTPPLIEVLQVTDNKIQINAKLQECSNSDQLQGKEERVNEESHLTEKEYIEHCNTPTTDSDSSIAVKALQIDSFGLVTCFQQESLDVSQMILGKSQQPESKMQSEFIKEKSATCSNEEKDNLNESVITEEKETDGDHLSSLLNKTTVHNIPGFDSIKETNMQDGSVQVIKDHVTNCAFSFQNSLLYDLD", "UniProt Q7Z7A3": "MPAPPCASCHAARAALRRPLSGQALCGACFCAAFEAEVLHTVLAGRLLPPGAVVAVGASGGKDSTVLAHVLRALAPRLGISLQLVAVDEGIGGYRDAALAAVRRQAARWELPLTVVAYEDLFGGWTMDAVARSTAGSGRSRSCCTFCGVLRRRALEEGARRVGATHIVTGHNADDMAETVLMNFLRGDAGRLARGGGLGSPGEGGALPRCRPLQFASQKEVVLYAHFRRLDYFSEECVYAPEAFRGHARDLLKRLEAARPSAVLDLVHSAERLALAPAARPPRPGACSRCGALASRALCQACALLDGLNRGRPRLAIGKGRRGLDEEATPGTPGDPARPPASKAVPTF", "UniProt O95861": "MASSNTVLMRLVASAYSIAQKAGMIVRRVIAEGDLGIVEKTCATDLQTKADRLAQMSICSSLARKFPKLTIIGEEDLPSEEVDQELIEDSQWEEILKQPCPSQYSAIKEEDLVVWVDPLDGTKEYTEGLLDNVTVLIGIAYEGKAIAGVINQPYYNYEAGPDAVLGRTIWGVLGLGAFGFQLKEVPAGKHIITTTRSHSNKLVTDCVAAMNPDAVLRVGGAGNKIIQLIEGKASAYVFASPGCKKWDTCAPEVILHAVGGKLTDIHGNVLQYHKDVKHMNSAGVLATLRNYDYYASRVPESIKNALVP", "UniProt P00846": "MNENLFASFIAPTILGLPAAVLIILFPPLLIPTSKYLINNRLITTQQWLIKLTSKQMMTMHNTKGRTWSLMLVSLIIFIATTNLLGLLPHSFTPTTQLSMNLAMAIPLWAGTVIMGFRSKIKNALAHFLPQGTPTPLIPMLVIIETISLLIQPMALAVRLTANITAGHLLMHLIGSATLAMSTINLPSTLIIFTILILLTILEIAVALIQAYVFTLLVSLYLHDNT", "UniProt P46100": "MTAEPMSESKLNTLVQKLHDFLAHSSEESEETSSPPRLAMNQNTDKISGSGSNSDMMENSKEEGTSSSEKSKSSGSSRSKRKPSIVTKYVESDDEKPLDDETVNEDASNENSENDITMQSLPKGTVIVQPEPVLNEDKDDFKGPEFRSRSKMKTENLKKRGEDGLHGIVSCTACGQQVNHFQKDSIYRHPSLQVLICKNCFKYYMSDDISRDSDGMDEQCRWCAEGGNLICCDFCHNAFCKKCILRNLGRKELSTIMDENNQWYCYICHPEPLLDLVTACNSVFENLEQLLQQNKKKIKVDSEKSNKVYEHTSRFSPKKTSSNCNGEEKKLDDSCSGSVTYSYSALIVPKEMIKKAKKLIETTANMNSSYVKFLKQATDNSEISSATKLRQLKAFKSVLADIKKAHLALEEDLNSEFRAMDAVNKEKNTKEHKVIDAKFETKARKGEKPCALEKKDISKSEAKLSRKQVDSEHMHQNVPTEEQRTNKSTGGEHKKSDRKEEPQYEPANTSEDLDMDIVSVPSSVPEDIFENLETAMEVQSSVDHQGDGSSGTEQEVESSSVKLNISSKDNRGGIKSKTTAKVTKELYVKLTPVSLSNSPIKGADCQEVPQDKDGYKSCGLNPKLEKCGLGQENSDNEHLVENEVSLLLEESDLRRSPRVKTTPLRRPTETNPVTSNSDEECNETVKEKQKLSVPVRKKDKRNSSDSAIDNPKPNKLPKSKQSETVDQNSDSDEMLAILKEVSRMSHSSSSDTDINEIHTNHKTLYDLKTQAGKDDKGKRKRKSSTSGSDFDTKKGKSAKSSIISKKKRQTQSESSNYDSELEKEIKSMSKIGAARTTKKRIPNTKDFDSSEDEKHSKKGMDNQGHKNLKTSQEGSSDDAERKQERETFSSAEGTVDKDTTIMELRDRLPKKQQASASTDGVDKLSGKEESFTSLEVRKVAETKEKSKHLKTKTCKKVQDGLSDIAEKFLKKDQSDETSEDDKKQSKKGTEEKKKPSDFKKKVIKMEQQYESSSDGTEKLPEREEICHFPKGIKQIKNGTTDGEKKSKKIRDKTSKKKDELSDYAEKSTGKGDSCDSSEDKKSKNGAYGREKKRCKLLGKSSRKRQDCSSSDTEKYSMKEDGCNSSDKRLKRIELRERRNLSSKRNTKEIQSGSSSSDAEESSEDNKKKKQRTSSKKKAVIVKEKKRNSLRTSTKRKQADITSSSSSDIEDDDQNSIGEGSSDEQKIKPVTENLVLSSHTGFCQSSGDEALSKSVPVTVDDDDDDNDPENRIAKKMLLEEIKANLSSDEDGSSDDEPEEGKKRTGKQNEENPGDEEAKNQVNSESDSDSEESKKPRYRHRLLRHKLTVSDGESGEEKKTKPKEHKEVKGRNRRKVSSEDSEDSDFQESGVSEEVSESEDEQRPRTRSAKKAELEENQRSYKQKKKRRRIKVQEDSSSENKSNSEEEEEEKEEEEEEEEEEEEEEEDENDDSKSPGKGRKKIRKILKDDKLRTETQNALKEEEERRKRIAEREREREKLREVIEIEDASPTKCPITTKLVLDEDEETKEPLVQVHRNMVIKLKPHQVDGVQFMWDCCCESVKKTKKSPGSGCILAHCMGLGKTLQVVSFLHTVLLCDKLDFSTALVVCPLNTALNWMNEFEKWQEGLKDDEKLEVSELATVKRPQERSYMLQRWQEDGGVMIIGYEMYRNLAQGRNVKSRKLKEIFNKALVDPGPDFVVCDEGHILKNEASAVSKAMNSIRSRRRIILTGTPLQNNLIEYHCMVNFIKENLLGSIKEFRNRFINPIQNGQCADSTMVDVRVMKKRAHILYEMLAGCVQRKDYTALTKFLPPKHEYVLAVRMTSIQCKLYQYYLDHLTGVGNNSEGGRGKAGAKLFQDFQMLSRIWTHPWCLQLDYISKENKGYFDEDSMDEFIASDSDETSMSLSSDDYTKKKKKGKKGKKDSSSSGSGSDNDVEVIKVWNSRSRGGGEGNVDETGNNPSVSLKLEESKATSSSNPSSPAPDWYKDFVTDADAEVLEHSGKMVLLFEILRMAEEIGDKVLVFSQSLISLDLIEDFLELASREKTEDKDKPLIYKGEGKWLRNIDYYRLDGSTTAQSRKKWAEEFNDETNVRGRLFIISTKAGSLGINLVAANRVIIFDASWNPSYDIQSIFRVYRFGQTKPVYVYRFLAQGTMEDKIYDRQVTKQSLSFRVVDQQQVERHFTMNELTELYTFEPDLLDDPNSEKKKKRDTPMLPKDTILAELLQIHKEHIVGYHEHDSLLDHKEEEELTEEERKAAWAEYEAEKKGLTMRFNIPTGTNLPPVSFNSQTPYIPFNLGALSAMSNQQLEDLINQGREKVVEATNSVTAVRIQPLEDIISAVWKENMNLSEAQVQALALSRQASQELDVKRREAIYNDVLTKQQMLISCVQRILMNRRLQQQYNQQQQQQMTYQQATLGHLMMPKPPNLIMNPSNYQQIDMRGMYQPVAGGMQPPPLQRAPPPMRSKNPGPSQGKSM", "UniProt Q96NB1": "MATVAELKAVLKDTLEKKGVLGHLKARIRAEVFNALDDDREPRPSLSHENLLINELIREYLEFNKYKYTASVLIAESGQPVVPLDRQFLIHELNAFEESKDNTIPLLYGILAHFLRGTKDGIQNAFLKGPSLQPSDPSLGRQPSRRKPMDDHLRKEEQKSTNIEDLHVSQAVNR", "UniProt P56385": "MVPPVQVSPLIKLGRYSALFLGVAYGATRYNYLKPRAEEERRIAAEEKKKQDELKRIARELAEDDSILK", "UniProt Q12982": "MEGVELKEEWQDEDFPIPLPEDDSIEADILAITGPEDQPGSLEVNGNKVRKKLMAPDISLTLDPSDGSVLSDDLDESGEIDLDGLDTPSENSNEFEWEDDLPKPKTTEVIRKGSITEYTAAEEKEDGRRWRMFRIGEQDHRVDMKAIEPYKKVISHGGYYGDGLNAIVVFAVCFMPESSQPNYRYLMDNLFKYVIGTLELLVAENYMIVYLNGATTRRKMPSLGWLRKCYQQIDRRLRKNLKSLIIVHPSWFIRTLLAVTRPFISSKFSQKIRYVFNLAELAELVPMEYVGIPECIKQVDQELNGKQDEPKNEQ", "UniProt O75531": "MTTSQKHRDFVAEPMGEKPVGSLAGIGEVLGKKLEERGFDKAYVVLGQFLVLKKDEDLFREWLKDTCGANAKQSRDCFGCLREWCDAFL", "UniProt Q9BUT9": "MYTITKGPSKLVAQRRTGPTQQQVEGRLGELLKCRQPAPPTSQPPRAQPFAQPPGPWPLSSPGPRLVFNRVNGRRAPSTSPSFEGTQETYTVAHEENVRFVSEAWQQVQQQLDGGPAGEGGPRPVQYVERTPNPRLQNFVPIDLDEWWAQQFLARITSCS", "UniProt Q5UCC4": "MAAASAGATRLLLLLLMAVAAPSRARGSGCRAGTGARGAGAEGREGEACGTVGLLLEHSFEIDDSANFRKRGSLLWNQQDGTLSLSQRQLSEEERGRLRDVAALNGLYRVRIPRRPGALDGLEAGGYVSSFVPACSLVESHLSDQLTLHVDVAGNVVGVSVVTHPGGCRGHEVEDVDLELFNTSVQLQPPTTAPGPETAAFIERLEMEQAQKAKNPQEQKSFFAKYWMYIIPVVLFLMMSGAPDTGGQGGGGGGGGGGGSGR", "UniProt Q8IXM2, whole entry, looked up": "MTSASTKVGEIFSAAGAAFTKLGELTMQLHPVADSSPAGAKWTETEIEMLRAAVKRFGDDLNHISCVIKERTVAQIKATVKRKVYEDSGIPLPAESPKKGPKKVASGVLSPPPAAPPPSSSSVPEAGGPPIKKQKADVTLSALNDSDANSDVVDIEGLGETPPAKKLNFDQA", "UniProt Q9H3K6": "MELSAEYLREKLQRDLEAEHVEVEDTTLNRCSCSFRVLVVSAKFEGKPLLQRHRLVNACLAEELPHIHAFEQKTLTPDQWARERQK", "UniProt Q96RR1": "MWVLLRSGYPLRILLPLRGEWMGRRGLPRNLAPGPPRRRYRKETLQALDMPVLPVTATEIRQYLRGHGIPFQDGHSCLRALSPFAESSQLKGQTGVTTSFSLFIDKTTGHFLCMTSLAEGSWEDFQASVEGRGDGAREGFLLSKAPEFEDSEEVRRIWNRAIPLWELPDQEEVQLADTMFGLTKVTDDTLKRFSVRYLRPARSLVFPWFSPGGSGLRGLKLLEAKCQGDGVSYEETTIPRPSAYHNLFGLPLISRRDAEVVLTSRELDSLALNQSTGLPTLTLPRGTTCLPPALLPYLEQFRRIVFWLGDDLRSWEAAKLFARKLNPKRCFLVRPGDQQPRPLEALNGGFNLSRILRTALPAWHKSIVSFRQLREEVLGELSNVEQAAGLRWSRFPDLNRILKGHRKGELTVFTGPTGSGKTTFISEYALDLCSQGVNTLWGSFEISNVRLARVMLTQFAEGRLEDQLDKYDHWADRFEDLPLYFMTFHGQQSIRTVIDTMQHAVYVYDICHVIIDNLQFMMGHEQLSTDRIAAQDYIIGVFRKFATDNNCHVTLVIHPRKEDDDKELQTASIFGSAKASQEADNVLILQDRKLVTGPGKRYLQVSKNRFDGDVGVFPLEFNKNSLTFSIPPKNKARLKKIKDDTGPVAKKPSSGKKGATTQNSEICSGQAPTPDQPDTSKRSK"}, "source": "the supplement of paper PMC7666118", "note": "This is one part of the list.", "data": [{"compound": "COc1ccc(Cn2ccc3cc(C)c(C(=O)NO)cc32)cc1", "assay": "dose-dependent thermal stabilisation call (2D-TPP, DLPTP, 10% FDR) (binary (1 = stabilised)); higher = stabilised by the compound", "conditions": "system: HL-60 intact cells; concentration range 0.04-10 µM", "procedure": "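2D thermal proteome profiling in intact HL-60 cells treated with BRD-3811 (0, 0.04, 0.29, 2, 10 uM) for 90 min at 37 C, then heated 3 min at one of 12 temperatures (42-63.9 C). Soluble protein was quantified by TMT10 MS. The value is the DLPTP call of the paper: dose-dependent thermal stabilisation over all temperatures at 10% FDR (F-test of a dose-response against a flat model); one experiment, one call per tested protein.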", "values": [{"target": "BLM (UniProt P54132)", "dose-dependent thermal stabilisation call": "inactive: 0"}, {"target": "C16ORF42 (UniProt Q9UJK0)", "dose-dependent thermal stabilisation call": "inactive: 0"}, {"target": "ATPAF2 (UniProt Q8N5M1)", "dose-dependent thermal stabilisation call": "inactive: 0"}, {"target": "C14ORF104 (UniProt Q9NVR5)", "dose-dependent thermal stabilisation call": "inactive: 0"}, {"target": "C18ORF19 (UniProt Q96ND0)", "dose-dependent thermal stabilisation call": "inactive: 0"}, {"target": "ATR (UniProt Q13535)", "dose-dependent thermal stabilisation call": "inactive: 0"}, {"target": "ATP6AP2 (UniProt O75787)", "dose-dependent thermal stabilisation call": "inactive: 0"}, {"target": "AVL9 (UniProt Q8NBF6)", "dose-dependent thermal stabilisation call": "inactive: 0"}, {"target": "ATPBD3 (UniProt Q7Z7A3)", "dose-dependent thermal stabilisation call": "inactive: 0"}, {"target": "C18ORF25 (UniProt Q96B23)", "dose-dependent thermal stabilisation call": "inactive: 0"}, {"target": "BPNT1 (UniProt O95861)", "dose-dependent thermal stabilisation call": "inactive: 0"}, {"target": "ATP6 (UniProt P00846)", "dose-dependent thermal stabilisation call": "inactive: 0"}, {"target": "ATP5SL (UniProt Q9NW81)", "dose-dependent thermal stabilisation call": "inactive: 0"}, {"target": "BAT2L (UniProt Q5JSZ5)", "dose-dependent thermal stabilisation call": "inactive: 0"}, {"target": "ATRX (UniProt P46100)", "dose-dependent thermal stabilisation call": "inactive: 0"}, {"target": "BICD2 (UniProt Q8TD16)", "dose-dependent thermal stabilisation call": "inactive: 0"}, {"target": "C19ORF52 (UniProt Q9BSF4)", "dose-dependent thermal stabilisation call": "inactive: 0"}, {"target": "C16ORF63 (UniProt Q96NB1)", "dose-dependent thermal stabilisation call": "inactive: 0"}, {"target": "BAG2 (UniProt O95816)", "dose-dependent thermal stabilisation call": "inactive: 0"}, {"target": "C19ORF29 (UniProt Q8WUQ7)", "dose-dependent thermal stabilisation call": "inactive: 0"}, {"target": "ATP5I (UniProt P56385)", "dose-dependent thermal stabilisation call": "inactive: 0"}, {"target": "C19ORF10 (UniProt Q969H8)", "dose-dependent thermal stabilisation call": "inactive: 0"}, {"target": "BNIP2 (UniProt Q12982)", "dose-dependent thermal stabilisation call": "inactive: 0"}, {"target": "BANF1 (UniProt O75531)", "dose-dependent thermal stabilisation call": "inactive: 0"}, {"target": "C14ORF106 (UniProt Q6P0N0)", "dose-dependent thermal stabilisation call": "inactive: 0"}, {"target": "C16ORF14 (UniProt Q9BUT9)", "dose-dependent thermal stabilisation call": "inactive: 0"}, {"target": "C14ORF21 (UniProt Q86U38)", "dose-dependent thermal stabilisation call": "inactive: 0"}, {"target": "AUH (UniProt Q13825)", "dose-dependent thermal stabilisation call": "inactive: 0"}, {"target": "C19ORF63 (UniProt Q5UCC4)", "dose-dependent thermal stabilisation call": "inactive: 0"}, {"target": "C16ORF88 (UniProt Q1ED39)", "dose-dependent thermal stabilisation call": "inactive: 0"}, {"target": "ATP6V0A1 (UniProt Q93050)", "dose-dependent thermal stabilisation call": "inactive: 0"}, {"target": "C17ORF49 (UniProt Q8IXM2)", "dose-dependent thermal stabilisation call": "inactive: 0"}, {"target": "UniProt B6HY63_HUMAN", "dose-dependent thermal stabilisation call": "inactive: 0"}, {"target": "BOLA2 (UniProt Q9H3K6)", "dose-dependent thermal stabilisation call": "inactive: 0"}, {"target": "ATP5A1 (UniProt P25705)", "dose-dependent thermal stabilisation call": "inactive: 0"}, {"target": "C10ORF2 (UniProt Q96RR1)", "dose-dependent thermal stabilisation call": "inactive: 0"}]}]}
